Test results: article doi:10.1101/2022.06.06.495033
No constants are given. Whether binding was seen depends on the method and setting. In cells and extracts the contact can be indirect. Some binding calls cover weakened binding; strength is not graded here. Where a sequence is shown, tags or fusion partners need not be part of it.

What was measured:
[1] = molecular target: T1, AtEDEM2/MNS4, fusion protein from the pVYCE vector (Arabidopsis) (UniProt Q9FG93); experiment: split reporter
T1 sequence: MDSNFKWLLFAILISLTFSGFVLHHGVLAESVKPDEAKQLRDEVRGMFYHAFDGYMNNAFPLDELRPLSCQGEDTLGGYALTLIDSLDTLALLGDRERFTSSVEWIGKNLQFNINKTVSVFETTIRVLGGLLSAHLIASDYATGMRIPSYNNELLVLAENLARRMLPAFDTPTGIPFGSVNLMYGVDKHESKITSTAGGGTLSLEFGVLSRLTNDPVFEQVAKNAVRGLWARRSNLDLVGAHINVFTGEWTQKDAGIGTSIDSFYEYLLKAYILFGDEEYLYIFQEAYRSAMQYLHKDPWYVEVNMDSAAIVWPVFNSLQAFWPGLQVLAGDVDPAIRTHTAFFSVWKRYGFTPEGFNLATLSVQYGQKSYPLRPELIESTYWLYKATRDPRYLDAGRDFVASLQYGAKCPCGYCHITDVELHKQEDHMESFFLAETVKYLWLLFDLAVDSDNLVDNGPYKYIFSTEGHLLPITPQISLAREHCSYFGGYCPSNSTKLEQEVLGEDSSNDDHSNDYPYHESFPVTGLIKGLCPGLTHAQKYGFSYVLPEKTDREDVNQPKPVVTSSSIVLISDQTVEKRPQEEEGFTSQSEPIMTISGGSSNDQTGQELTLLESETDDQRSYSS

[2] = molecular target: T1, AtEDEM2/MNS4, fusion protein from the pVYCE vector (Arabidopsis); experiment: co-IP

B1: TU…-INDUCED1 (TIN1), fusion protein from the pVYNE vector (protein, UniProt Q84JN2 26-424)
chain: LISSPDANPPYPKAISDLKESIVKGLGFQSEEVKVSGFDIRDALVGHSVSYEFDLEIDNKVLPFKLLEDVNRWEYVDLPIFQVEQPSENGLVPMRNKKTSSDDVLPVLAPFQLSGPMELWIQDANNMRLSLPYDVDAGVLKKVILADGAVVTVKGARSVSLRHPIDLPLPLNQSSNEFASGLLSLAEQLRRASTDQESPVLSLRIVGPTSLASTSQSPDNKLKLKRLAPGLVELSSMSKDKRSLSTIGANAMTTVLTPREFTTMWPITSINGSNANLLGFEKLLTSVLGPKAQEKGSFKVLKAKVAAQTFMKIGFGIEKKLKEADVEGLSFPEWRTKPETMRMHFEVLAKVDGENVIPENVMRVDPIPLEDTIAQNVITGNVTMSKLPIIESPPSPFTL
binding [1]: binds | binding [2]: binds
